{
  "source": "patent US7217525",
  "about": "(Johns Hopkins, dated 2007)",
  "binders": {"B1": {"name": "C-terminal myc-tagged version of Narp (designated myc-Narp) (ligand, not shown: small tags and cut ends)", "chain": "AGQAQDNPIPGSRFVCTALPPEAARAGCPLPAMPMQGGALSPEEELRAAVLHWRETVVQQKETLGAQREAIRELTSKLARCEGLAGGKARGTGATGKDTMGDLPRDPGHVVEQLSRSLQTLKDRLESLELQLHTNASNAGLPSDFREVLQRRLGELERQLLRKVAELEDEKSLLHNETSAHRQKTENTLNALLQRVTELERGNSAFKSPDAFKVSLPLRTNYLYGKIKKTLPELYAFTICLWLRSSASPGIGTPFSYAVPGQANEIVLIEWGNNPIELLINDKVAQLPLFVSDGKWHHICITWTTRDGMWEAFQDGEKLGTGENLAPWHPIKPGGVLILGQEQDTVGGRFDATQAFVGELSQFNIWDRVLRAQEIINIANCSTNMPGNIIPWVDNNVDVFGGASKWPVETCEERLLDL"}},
  "key": {"[1]": {"biological_target": "AMPA receptor subunit GluR2", "assay": "co-immunoprecipitation from co-transfected HEK-293 cells"}, "[2]": {"biological_target": "AMPA receptor subunit GluR3", "assay": "co-immunoprecipitation from co-transfected HEK-293 cells"}},
  "note": "Results are given in words; binding and its absence hold for the method and conditions named. Binding seen in cells or lysates may run through a third protein. Binding can be weak; no strength is given.",
  "data": [
    {"binder": "B1", "values": [
      {"measurement": "binding", "setting": "[1]", "result": "binds"},
      {"measurement": "binding", "setting": "[2]", "result": "binds"}
    ]}
  ]
}
